Test results reported in patent US20130023541A1, “VOLTAGE-GATED SODIUM CHANNEL BLOCKERS” (Glaxo Group Limited, priority 2010, published 2013).
Counter-ions that a name gives are not always drawn. Some results were stated once for a whole list of compounds, not compound by compound.

Chains of the proteins cited; added tags and fusions are not shown.
UniProt Q9NY46, whole entry: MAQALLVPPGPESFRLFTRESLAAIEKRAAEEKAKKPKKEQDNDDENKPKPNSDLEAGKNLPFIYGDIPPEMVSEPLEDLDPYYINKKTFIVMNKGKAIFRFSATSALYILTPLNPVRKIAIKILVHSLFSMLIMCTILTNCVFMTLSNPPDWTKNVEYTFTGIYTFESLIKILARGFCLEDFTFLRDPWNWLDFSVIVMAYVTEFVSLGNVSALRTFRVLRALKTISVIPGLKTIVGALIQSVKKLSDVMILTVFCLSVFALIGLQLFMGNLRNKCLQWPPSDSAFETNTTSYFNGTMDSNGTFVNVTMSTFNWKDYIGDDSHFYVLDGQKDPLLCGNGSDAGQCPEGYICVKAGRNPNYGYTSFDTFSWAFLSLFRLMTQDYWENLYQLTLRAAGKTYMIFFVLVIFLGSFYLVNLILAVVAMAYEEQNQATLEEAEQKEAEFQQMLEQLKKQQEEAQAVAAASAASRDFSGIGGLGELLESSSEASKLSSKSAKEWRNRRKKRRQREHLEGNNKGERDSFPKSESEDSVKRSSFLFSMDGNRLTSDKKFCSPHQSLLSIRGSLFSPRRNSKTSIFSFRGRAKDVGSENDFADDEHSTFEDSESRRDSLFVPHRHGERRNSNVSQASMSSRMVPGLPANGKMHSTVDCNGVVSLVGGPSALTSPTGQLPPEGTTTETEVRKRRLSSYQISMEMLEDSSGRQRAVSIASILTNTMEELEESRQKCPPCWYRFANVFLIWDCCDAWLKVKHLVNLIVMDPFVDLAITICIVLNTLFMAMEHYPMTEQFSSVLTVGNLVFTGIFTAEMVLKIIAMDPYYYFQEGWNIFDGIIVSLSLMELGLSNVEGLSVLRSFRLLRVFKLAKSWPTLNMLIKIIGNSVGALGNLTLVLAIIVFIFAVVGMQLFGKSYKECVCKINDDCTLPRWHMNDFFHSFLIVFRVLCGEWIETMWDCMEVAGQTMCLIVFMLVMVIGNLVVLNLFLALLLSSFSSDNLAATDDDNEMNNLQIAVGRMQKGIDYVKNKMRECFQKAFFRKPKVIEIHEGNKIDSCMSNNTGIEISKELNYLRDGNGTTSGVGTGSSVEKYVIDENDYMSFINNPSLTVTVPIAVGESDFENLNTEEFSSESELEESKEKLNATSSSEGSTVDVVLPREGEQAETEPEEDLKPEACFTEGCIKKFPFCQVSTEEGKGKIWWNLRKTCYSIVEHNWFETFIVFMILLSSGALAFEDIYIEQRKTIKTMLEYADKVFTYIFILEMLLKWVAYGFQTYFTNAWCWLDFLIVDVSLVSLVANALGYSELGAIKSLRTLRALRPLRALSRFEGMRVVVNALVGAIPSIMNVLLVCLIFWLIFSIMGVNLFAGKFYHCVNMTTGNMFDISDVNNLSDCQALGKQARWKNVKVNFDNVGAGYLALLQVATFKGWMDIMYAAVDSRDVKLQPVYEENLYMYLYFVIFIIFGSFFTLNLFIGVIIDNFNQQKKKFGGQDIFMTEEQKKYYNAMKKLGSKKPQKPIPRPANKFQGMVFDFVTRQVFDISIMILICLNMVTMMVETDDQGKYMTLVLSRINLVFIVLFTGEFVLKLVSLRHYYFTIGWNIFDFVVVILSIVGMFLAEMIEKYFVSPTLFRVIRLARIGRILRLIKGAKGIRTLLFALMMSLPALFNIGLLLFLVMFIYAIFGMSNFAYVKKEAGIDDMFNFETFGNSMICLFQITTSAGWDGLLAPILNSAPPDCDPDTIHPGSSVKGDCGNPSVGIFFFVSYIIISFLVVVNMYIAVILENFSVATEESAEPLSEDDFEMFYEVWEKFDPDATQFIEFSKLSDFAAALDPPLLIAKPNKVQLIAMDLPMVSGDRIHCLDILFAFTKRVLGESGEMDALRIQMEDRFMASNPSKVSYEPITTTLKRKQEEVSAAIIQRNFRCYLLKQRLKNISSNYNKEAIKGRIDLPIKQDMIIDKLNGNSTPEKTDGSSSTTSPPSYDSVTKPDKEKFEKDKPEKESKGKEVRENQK
UniProt Q15858, whole entry: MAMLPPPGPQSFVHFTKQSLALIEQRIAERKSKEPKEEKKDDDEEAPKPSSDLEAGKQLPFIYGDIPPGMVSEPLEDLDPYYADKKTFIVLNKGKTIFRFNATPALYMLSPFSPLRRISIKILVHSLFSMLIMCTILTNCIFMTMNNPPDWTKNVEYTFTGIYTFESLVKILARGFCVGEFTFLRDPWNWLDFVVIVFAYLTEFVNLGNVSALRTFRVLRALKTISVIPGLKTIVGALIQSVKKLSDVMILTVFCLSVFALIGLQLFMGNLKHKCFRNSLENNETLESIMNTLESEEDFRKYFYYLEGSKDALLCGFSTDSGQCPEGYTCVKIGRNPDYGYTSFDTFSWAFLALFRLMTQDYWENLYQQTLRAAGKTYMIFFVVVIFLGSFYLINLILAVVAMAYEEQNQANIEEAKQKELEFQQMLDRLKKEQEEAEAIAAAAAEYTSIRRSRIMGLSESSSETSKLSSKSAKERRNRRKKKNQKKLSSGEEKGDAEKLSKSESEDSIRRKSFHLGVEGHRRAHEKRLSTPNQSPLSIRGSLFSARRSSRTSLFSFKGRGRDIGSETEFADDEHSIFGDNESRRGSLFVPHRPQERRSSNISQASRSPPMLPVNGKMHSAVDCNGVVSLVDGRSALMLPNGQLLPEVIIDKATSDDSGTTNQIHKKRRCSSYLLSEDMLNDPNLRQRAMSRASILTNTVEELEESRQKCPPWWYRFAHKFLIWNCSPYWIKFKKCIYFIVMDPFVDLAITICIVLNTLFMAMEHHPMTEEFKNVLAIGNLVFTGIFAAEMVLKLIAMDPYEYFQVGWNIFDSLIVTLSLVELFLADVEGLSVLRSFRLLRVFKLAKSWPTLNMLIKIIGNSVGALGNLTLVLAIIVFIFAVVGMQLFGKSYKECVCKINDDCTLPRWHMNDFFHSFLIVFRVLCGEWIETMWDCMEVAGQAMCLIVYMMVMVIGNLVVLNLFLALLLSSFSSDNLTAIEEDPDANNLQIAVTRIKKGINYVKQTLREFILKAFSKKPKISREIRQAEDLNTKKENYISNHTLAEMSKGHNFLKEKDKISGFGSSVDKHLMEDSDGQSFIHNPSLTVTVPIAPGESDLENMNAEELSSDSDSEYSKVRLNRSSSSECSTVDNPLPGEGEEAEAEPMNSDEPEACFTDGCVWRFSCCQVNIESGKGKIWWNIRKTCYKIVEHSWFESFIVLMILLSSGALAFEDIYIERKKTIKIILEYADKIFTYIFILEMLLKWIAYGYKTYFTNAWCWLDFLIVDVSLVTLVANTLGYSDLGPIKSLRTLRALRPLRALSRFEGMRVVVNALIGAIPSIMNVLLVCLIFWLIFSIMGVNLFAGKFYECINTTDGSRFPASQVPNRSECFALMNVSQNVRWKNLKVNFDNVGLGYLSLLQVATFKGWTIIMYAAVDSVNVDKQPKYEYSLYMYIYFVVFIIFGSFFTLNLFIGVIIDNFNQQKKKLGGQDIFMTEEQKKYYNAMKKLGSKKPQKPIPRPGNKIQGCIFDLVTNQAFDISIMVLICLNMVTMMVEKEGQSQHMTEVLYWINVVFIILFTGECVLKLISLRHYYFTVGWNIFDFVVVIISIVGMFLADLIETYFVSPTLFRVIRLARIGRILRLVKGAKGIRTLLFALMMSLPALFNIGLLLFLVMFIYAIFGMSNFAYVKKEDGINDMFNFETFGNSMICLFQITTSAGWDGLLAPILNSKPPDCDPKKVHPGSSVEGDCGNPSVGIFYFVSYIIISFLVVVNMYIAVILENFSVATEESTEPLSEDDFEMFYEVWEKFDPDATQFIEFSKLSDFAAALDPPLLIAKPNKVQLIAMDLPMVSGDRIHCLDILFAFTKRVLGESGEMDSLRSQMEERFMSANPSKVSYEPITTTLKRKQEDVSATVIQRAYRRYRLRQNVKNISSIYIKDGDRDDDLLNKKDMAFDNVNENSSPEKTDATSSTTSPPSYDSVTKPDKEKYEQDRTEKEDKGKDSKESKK

How the values were obtained:
hNaV1.3 channels = molecular target: T1, hNaV1.3 channels (Homo sapiens, UniProt Q9NY46); assay: Use-dependent block of hNaV1.3 currents, IonWorks Quattro planar array electrophysiology; assay type: cell-based; conditions: concentration producing 15% use-dependent inhibition, 10th versus 1st depolarizing pulse, 10 Hz, CHO cells
T1 construct: expressed in transfected cells

NaV 1.7 = NaV 1.7 (Homo sapiens, UniProt Q15858); assay: Use-dependent block of NaV1.7 currents, IonWorks Quattro planar array electrophysiology; assay type: cell-based; conditions: concentration producing 15% use-dependent inhibition, 10th versus 1st depolarizing pulse, 10 Hz

| Compound | use-dependent pUD15 against NaV1.3 (hNaV1.3 channels) | use-dependent pUD15 against NaV1.7 (NaV 1.7) |
| --- | --- | --- |
| CC(C)OC(=O)c1cccnc1N1CCN(Cc2ccc(S(=O)(=O)N(C)C)cc2)CC1.Cl [Example 484, 1-methylethyl 2-[4-({4-[(dimethylamino)sulfonyl]phenyl}methyl)-1-piperazinyl]-3-pyridinecarboxylate] | 4-4.99 | 4-4.99 |
| CC(C)OC(=O)c1cccnc1N1CCN(Cc2ccc(Sc3ccccc3)cc2)CC1 [Example 36, 1-Methylethyl 2-(4-{[4-(phenylthio)phenyl]methyl}-1-piperazinyl)-3-pyridinecarboxylate hydrochloride] | 4-4.99 | 4-4.99 |
| CC(C)OC(=O)c1cccnc1N1CCN(Cc2cccc(COc3ccc(Cl)cc3Cl)c2)CC1 [Example 217] | inactive | inactive |
| CC(C)OC(=O)c1c(-c2ccccc2)ccnc1N1CCN(Cc2ccc(Oc3ccc(F)cc3)cc2)CC1 [Example 147, 1-methylethyl 2-[4-({4-[(4-fluorophenyl)oxy]phenyl}methyl)-1-piperazinyl]-4-phenyl-3-pyridinecarboxylate] | 4-4.99 | 4-4.99 |
| CCN(Cc1cccc(Oc2ccccc2)c1)[C@H]1CCN(c2ncccc2C(=O)OC(C)C)C1 [Example 182] | 5-5.99 | 5-5.99 |
| COc1cc(COc2ccc(CN3CCN(c4ncccc4C(=O)OC(C)C)CC3)cc2)cc(OC)c1 [Example 426] | 5-5.99 | 5-5.99 |
| CC(C)OC(=O)c1cccnc1N1CCN(CCc2ccccc2)CC1 [Example 28, 1-Methylethyl 2-[4-(2-phenylethyl)-1-piperazinyl]-3-pyridinecarboxylate hydrochloride] | 5-5.99 | 5-5.99 |
| COc1cc(CN2CCN(c3ncccc3C(=O)OC(C)C)CC2)cc(OC)c1OCc1ccccc1 [Example 308, 1-methylethyl 2-[4-({3,5-bis(methyloxy)-4-[(phenylmethyl)oxy]phenyl}methyl)-1-piperazinyl]-3-pyridinecarboxylate] | 5-5.99 | 4-4.99 |
| COc1ccc(OCc2cccc(CN3CCN(c4ncccc4C(=O)OC(C)C)CC3)c2)cc1 [Example 211] | 5-5.99 | 5-5.99 |
| CC(C)OC(=O)c1cccnc1N1CCN(Cc2ccc(Oc3cccc(Cl)c3)cc2)CC1 [Example 341] | 4-4.99 | inactive |
| CC(C)OC(=O)c1cccnc1N1CCN(Cc2cccc(Cc3ccccc3)c2)CC1 [Example 26, 1-methylethyl2-(4-{[3-(Phenylmethyl)phenyl]methyl}-1-piperazinyl)-3-pyridine carboxylate hydrochloride] | 5-5.99 | 4-4.99 |
| Cc1ccc(COc2ccc(CN3CCN(c4ncccc4C(=O)OC(C)C)CC3)cc2)cc1 [Example 443] | 5-5.99 | 4-4.99 |
| CC(C)OC(=O)c1cccnc1N1CCN(Cc2cccc(OCc3ccc(Cl)cc3)c2)CC1 [Example 97] | 5-5.99 | 4-4.99 |
| CC(C)OC(=O)c1cccnc1N1CCN(Cc2cccc3c2oc2ccccc23)CC1 [Example 354] | 5-5.99 | 4-4.99 |
| COc1cc(CN2CCN(c3nccc(-c4ccccc4)c3C(=O)OC(C)C)CC2)ccc1OCc1ccccc1 [Example 134, 1-methylethyl 2-[4-({3-(methyloxy)-4-[(phenylmethyl)oxy]phenyl}methyl)-1-piperazinyl]-4-phenyl-3-pyridinecarboxylate] | inactive | inactive |
| CCN(Cc1ccccc1-c1ccc(F)cc1)[C@@H]1CCN(c2ncccc2C(=O)OC(C)C)C1 [Example 71, 1-methylethyl 2-((3R)-3-{ethyl[(4′-fluoro-2-biphenylyl)methyl]amino}-1-pyrrolidinyl)-3-pyridinecarboxylate] | 5-5.99 | 4-4.99 |
| CCN(Cc1cc(C)c(C)s1)[C@H]1CCN(c2ncccc2C(=O)OC(C)C)C1 [Example 18, 1-Methylethyl 2-{(3S)-3-[[(4,5-dimethyl-2-thienyl)methyl](ethyl)amino]-1-pyrrolidinyl}-3-pyridinecarboxylate] | 5-5.99 | 5-5.99 |

| Compound | use-dependent pUD15 against NaV1.3 (hNaV1.3 channels) | use-dependent pUD15 against NaV1.7 (NaV 1.7) |
| --- | --- | --- |
| CCCCOc1ccc(COc2cccc(CN3CCN(c4ncccc4C(=O)OC(C)C)CC3)c2)cc1 [Example 406] | 4-4.99 | 4-4.99 |
| CCN(Cc1cccc(Oc2ccccc2)c1)[C@@H]1CCN(c2nccc(C)c2C(=O)OC(C)C)C1 [Example 284, 1-methylethyl 2-[(3R)-3-(ethyl{[3-(phenyloxy)phenyl]methyl}amino)-1-pyrrolidinyl]-4-methyl-3-pyridinecarboxylate] | 5-5.99 | 5-5.99 |
| CC(C)OC(=O)c1cccnc1N1CCN(Cc2ccc(Oc3ccc(Cl)cc3)cc2)CC1 [Example 355] | 4-4.99 | inactive |
| COc1ccc(CN2CCN(c3nccc(-c4ccccc4)c3C(=O)OC(C)C)CC2)cc1OCc1ccccc1 [Example 141, 1-methylethyl 2-[4-({4-(methyloxy)-3-[(phenylmethyl)oxy]phenyl}methyl)-1-piperazinyl]-4-phenyl-3-pyridinecarboxylate] | 5-5.99 | 5-5.99 |
| CCN(Cc1ccc(CN2CCN(c3ncccc3C(=O)OC(C)C)CC2)cc1)Cc1ccc(S(=O)(=O)N(C)C)cc1 [Example 487, 1-methylethyl 2-{4-[(4-{[({4[(dimethylamino)sulfonyl]phenyl}methyl)(ethyl)amino]methyl}phenyl)methyl]-1-piperazinyl}-3-pyridinecarboxylate] | 5-5.99 | inactive |
| CCOc1ccc(OCc2cccc(CN3CCN(c4ncccc4C(=O)OC(C)C)CC3)c2)cc1 [Example 205, 1-methylethyl 2-(4-{[3-({[4-(ethyloxy)phenyl]oxy}methyl)phenyl]methyl}-1-piperazinyl)-3-pyridinecarboxylate] | 5-5.99 | inactive |
| CCN(Cc1ccc(CN(CC)[C@@H]2CCN(c3ncccc3COC(=O)c3ccccc3)C2)cc1)[C@@H]1CCN(c2ncccc2COC(=O)c2ccccc2)C1 [Example 534, Benzene-1,4-diylbis[methanediyl(ethylimino)(3R)-3,1-pyrrolidinediyl-2,3-pyridinediylmethanediyl]dibenzoate hydrochloride] | 4-4.99 | 4-4.99 |
| CCc1ccc(COc2cccc(CN3CCN(c4ncccc4C(=O)OC(C)C)CC3)c2)cc1 [Example 408] | 4-4.99 | 4-4.99 |
| CC(C)OC(=O)c1cccnc1N1CCN(Cc2cnc(CN3CCN(c4ncccc4C(=O)OC(C)C)CC3)cn2)CC1 [Example 510, bis(1-methylethyl) 2,2′-[2,5-pyrazinediylbis(methanediyl-4,1-piperazinediyl)]di(3-pyridine carboxylate)] | 4-4.99 | inactive |
| CC(C)OC(=O)c1cccnc1N1CCN(Cc2cccc(OCc3cc(F)c(F)cc3F)c2)CC1 [Example 398] | 5-5.99 | 4-4.99 |
| CC(C)OC(=O)c1cccnc1N1CCN(Cc2ccc(COCc3c(F)cccc3Cl)cc2)CC1 [Example 526, 1-methylethyl2-(4-{[4-({[(2-chloro-6-fluorophenyl)methyl]oxy}methyl)phenyl]methyl}-1-piperazinyl)-3-pyridinecarboxylate] | 5-5.99 | 4-4.99 |
| CC(C)OC(=O)c1cccnc1N1CCN(Cc2cc(OCc3ccccc3)cc(OCc3ccccc3)c2)CC1 [Example 317, 1-methylethyl 2-[4-({3,5-bis[(phenylmethyl)oxy]phenyl}methyl)-1-piperazinyl]-3-pyridinecarboxylate] | 5-5.99 | 4-4.99 |
| CCc1ccc(-c2ccc(CN(CC)[C@@H]3CCN(c4ncccc4C(=O)OC(C)C)C3)cc2)cc1 [Example 65, 1-methylethyl 2-((3R)-3-{ethyl[(4′-ethyl-4-biphenylyl)methyl]amino}-1-pyrrolidinyl)-3-pyridinecarboxylate] | 4-4.99 | 4-4.99 |
| CC(C)OC(=O)c1cccnc1N1CCN(Cc2ccc(COc3ccccc3Cl)cc2)CC1 [Example 196] | 4-4.99 | inactive |
| CC(C)OC(=O)c1cccnc1N1CCN(Cc2ccc(OCc3cc(Cl)cc(Cl)c3)cc2)CC1 [Example 451] | 4-4.99 | 5-5.99 |
| CC(C)OC(=O)c1cccnc1N1CCN(Cc2ccc(C(=O)N(C)C)cc2)CC1 [Example 33, 1-Methylethyl 2-[4-({4-[(dimethylamino)carbonyl]phenyl}methyl)-1-piperazinyl]-3-pyridinecarboxylate hydrochloride] | 5-5.99 | 5-5.99 |
| CC(C)OC(=O)c1cccnc1N1CCN(Cc2ccc(Nc3c(F)cccc3C(F)(F)F)cc2)CC1 [Example 120, 1-methylethyl 2-{4-[(4-{[2-fluoro-6-(trifluoromethyl)phenyl]amino}phenyl)methyl]-1-piperazinyl}-3-pyridinecarboxylate] | 5-5.99 | 5-5.99 |
